Values of other authors in patent publication US12478643B2, “Compositions and methods for the prevention or treatment of rheumatoid arthritis” (Rhode Island Hospital, priority 2021, dated 2025).
For at least one compound, name, drawing or mass did not settle the structure.

Test system: obese mice on a high fat diet
Conditions: 10 mg/kg; cited from earlier work

SMILES: CC12CCCC1C1CCC3CC(N)CCC3(C)C1CC2 (stereo not shown) [Compound K118]
- fat content: lowered fat content
